Experimental data taken from the supplement of paper PMC10849652.
The list shows a part of the results.

By UniProt entry, the sequences of proteins in these tests, tags left out. Where a name states a change or a piece, a line headed by the entry shows the natural chain unless it says otherwise.
UniProt Q9H204: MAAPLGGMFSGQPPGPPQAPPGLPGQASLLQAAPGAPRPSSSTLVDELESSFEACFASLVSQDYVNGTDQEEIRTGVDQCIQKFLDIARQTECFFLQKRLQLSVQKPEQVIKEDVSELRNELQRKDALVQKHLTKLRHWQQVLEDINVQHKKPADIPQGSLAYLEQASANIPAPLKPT
UniProt Q9H7H0: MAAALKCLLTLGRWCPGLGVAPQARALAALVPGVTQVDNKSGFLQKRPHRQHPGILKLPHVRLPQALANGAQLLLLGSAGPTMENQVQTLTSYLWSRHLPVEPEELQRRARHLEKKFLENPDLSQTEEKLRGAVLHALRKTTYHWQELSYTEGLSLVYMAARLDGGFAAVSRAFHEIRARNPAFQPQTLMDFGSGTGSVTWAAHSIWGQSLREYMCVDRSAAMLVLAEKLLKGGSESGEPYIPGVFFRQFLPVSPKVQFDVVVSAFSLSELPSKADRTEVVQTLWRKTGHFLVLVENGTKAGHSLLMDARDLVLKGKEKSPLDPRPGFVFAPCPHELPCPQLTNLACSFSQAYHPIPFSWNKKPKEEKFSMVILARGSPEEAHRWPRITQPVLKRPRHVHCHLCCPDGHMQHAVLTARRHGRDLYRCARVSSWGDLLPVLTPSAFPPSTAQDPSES
UniProt P48740: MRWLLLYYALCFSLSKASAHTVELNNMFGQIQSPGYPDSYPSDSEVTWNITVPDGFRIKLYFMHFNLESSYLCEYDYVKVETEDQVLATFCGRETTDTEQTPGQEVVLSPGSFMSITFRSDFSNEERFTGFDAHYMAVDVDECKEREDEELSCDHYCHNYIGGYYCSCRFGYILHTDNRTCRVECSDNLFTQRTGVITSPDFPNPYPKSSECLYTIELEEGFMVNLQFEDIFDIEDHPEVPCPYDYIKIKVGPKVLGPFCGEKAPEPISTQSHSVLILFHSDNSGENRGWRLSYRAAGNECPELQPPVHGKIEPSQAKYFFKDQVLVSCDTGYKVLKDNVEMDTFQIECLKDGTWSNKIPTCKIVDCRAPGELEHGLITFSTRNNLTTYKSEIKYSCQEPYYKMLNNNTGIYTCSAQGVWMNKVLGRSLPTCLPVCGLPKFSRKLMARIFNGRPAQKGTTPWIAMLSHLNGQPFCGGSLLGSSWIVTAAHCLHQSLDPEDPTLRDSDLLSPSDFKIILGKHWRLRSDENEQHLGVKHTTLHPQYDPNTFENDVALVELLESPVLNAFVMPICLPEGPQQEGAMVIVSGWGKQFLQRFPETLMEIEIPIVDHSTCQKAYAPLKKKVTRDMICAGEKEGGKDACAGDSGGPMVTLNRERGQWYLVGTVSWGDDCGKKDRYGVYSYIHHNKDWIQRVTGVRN
UniProt Q71F56: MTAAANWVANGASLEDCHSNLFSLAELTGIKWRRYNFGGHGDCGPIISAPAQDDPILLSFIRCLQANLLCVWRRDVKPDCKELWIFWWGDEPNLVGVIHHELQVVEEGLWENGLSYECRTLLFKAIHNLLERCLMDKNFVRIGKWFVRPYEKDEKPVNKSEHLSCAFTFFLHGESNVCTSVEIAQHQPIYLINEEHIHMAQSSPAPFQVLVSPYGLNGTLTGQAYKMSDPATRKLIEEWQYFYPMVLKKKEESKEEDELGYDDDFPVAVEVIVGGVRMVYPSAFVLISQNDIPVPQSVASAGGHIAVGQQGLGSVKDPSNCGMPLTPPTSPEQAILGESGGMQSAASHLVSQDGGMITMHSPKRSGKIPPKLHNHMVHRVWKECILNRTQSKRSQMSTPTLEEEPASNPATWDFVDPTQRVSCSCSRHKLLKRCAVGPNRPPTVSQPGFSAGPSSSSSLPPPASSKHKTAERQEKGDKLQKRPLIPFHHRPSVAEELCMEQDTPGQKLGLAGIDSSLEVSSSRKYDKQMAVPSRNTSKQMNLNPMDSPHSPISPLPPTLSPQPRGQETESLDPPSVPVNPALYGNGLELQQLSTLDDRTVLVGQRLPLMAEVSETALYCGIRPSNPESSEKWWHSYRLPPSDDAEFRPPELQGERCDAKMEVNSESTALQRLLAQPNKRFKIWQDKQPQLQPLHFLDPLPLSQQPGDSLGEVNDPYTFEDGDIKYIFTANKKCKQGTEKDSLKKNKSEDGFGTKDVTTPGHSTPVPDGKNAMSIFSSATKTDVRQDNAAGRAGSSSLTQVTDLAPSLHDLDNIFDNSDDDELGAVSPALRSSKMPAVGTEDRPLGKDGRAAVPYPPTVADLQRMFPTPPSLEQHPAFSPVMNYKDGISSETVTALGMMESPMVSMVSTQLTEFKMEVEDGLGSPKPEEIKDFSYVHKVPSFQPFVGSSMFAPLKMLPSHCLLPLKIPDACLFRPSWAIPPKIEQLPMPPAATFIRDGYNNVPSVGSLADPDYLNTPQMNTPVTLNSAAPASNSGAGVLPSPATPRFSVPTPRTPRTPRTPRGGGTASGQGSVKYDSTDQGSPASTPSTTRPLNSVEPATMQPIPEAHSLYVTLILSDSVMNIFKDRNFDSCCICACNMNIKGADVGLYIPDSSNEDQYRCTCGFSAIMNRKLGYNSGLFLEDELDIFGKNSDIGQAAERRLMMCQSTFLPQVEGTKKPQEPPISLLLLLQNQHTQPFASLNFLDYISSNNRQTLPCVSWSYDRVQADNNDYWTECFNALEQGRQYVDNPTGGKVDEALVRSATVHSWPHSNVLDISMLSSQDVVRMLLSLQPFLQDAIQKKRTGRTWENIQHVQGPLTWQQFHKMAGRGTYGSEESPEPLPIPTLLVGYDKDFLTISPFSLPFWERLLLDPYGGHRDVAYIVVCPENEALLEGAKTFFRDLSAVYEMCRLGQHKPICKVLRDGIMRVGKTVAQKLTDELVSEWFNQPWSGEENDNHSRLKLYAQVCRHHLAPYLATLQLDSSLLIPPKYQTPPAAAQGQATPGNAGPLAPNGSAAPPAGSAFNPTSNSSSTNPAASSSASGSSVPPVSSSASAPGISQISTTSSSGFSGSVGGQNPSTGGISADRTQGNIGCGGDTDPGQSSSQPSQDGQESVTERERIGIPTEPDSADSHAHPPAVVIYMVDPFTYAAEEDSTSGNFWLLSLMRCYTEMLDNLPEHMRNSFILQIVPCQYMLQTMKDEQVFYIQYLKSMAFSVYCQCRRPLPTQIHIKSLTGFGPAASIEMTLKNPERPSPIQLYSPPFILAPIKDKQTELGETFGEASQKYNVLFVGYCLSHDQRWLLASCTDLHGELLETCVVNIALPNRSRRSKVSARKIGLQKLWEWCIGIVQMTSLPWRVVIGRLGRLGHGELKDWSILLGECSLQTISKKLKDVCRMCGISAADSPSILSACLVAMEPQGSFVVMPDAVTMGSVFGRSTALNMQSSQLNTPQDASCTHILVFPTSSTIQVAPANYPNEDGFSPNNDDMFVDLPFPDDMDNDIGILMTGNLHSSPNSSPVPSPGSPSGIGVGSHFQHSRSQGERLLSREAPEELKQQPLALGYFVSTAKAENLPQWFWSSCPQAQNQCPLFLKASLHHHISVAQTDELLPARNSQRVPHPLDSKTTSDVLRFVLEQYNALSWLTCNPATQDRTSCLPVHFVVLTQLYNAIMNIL
UniProt Q9P086: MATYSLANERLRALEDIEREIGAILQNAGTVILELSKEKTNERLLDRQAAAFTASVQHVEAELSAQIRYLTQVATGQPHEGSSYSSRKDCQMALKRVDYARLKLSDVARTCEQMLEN
UniProt A4D2B0: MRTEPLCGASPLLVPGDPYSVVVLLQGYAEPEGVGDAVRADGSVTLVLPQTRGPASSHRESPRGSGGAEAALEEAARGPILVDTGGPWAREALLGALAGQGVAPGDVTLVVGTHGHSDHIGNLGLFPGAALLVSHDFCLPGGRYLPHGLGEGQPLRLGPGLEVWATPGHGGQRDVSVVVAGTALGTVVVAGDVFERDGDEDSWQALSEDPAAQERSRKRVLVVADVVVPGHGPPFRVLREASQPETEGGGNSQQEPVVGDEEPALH
UniProt Q5U5Q3: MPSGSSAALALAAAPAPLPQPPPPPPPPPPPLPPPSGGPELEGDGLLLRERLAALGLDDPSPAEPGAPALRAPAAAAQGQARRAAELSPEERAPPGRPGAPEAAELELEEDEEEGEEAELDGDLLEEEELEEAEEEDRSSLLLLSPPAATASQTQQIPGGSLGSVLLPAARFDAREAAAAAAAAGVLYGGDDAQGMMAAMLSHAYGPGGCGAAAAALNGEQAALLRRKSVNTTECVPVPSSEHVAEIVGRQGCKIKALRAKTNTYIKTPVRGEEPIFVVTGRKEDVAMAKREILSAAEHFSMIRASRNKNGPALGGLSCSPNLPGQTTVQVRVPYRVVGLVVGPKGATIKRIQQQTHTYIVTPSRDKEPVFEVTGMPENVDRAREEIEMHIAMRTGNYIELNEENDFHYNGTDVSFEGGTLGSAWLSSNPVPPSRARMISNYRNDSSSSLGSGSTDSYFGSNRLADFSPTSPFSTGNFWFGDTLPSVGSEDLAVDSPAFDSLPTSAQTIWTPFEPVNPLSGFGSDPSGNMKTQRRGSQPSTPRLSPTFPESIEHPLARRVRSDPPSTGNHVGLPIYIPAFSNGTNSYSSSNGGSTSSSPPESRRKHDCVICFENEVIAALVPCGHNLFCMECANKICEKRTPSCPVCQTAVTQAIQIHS
UniProt Q13503: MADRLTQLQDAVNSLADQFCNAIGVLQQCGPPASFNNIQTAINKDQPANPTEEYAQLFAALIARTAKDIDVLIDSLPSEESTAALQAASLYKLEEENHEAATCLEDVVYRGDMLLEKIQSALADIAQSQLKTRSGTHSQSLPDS
UniProt Q8TDD5: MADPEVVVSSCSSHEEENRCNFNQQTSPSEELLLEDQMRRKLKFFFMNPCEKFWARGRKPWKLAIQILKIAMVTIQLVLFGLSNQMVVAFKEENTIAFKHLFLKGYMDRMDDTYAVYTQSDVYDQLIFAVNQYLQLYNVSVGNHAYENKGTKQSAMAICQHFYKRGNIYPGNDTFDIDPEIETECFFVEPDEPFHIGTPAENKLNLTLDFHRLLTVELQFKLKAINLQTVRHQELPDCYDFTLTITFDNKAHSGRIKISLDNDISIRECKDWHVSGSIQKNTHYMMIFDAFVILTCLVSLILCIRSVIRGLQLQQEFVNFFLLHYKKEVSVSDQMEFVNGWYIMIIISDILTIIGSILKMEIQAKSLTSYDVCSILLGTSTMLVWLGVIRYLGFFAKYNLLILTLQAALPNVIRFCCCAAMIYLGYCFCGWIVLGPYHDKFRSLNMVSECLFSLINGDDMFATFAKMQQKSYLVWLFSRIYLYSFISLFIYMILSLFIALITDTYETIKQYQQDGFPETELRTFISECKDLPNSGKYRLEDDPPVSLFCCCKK
UniProt Q02078: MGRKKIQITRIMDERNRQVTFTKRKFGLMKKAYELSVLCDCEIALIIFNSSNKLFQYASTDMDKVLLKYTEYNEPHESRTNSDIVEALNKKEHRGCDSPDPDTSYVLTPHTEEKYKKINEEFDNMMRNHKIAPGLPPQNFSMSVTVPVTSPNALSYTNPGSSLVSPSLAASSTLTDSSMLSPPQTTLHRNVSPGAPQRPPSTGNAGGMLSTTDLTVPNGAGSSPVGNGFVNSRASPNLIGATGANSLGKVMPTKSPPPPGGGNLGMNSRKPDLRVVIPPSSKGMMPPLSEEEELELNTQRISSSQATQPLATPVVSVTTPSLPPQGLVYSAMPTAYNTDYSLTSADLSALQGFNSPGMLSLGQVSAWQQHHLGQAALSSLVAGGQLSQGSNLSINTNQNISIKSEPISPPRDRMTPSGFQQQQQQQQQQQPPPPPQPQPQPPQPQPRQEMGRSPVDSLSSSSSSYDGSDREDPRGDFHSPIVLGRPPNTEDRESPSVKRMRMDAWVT
UniProt Q9H3U5: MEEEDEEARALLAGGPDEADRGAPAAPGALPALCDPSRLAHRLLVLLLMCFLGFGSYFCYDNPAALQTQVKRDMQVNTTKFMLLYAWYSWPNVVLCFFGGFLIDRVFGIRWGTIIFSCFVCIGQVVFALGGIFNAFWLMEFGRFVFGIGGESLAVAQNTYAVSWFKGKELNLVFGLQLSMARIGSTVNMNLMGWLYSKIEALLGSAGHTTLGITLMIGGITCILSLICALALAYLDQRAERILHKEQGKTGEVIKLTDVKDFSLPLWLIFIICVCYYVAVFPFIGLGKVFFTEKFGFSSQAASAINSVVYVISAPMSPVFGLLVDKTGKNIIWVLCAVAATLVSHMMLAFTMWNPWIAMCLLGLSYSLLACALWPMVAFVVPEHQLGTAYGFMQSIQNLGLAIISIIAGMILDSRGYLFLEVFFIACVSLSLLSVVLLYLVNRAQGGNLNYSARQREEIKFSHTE
UniProt Q9NS73: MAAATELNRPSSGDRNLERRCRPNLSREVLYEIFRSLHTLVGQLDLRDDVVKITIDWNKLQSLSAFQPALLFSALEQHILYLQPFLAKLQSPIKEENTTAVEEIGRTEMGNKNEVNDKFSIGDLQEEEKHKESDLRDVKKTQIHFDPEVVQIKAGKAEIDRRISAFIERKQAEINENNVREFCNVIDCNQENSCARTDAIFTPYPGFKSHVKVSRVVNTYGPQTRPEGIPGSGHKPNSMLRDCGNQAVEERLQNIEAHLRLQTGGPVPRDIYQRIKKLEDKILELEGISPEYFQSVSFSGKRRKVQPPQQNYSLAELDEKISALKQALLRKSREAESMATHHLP

Assays:
Assay in all cases: log2 fold change, soluble protein after heating vs DMSO (PISA); higher = thermal stabilisation; K562 cells, 10 uM, 30 min; active = over 0.2 and 3.5 SD of the protein, either way, in both replicates (recomputed)
[1] = compound: C[C@@H]1COCCN1C2=NC(=NC(=C2)C3(CC3)S(=O)(=O)C)C4=C5C=CNC5=CC=C4
Outline: (§1)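 Aliquots of K562 cells (2×10^6 cells/mL) treated with 10 μM compound for 30 min were heated for 3 min over 48°C-58°C. After pooling and extraction in PBS with 0.5% NP-40 at 4°C, soluble protein from a 21,000xg, 90 min spin was quantified by TMTpro 16plex LC-MS/MS with channel sums equalised. Thermal stability is expressed against control samples, from duplicates, as a log2 fold change.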

tozasertib = compound: Cc1cc(Nc2cc(N3CCN(C)CC3)nc(Sc3ccc(NC(=O)C4CC4)cc3)n2)n[nH]1 [tozasertib]
Outline: as §1

crizotinib = compound: C[C@@H](Oc1cc(-c2cnn(C3CCNCC3)c2)cnc1N)c1c(Cl)ccc(F)c1Cl [crizotinib]
Outline: as §1

doramapimod = compound: Cc1ccc(-n2nc(C(C)(C)C)cc2NC(=O)Nc2ccc(OCCN3CCOCC3)c3ccccc23)cc1 [doramapimod]
Outline: as §1

nilotinib = compound: Cc1cn(-c2cc(NC(=O)c3ccc(C)c(Nc4nccc(-c5cccnc5)n4)c3)cc(C(F)(F)F)c2)cn1 [nilotinib]
Outline: as §1

[2] = compound: Cc1nc(Nc2n[nH]c3c2CN(C(=O)N[C@H](CN(C)C)c2ccccc2)C3(C)C)c2sccc2n1
Outline: as §1

[3] = compound: Cc1ncc(-c2ccnc(Nc3ccc(S(C)(=O)=O)cc3)n2)n1C(C)C
Outline: as §1

[4] = compound: CS(=O)(=O)c1ccc(-c2cnc(N)c(C(=O)Nc3ccccc3)n2)cc1
Outline: as §1

[5] = compound: C[C@H](C1=CC=C(C=C1)C(=O)NC2=C3C=CNC3=NC=C2)N
Outline: as §1

duvelisib = compound: C[C@H](Nc1ncnc2nc[nH]c12)c1cc2cccc(Cl)c2c(=O)n1-c1ccccc1 [duvelisib]
Outline: as §1

gandotinib = compound: Cc1cc(Nc2cc(CN3CCOCC3)c3nc(C)c(Cc4ccc(Cl)cc4F)n3n2)n[nH]1 [gandotinib]
Outline: as §1

[6] = compound: Cc1cc(SCc2sc(-c3ccc(C(F)(F)F)cc3)nc2C)ccc1OCC(=O)O
Outline: as §1

ispinesib = compound: Cc1ccc(C(=O)N(CCCN)[C@@H](c2nc3cc(Cl)ccc3c(=O)n2Cc2ccccc2)C(C)C)cc1 [ispinesib]
Outline: as §1

bafetinib = compound: Cc1ccc(NC(=O)c2ccc(CN3CC[C@H](N(C)C)C3)c(C(F)(F)F)c2)cc1Nc1nccc(-c2cncnc2)n1 [bafetinib]
Outline: as §1

[7] = compound: Cc1cccc(CC(=O)N2CCc3c2ccc(-c2cn(C)c4ncnc(N)c24)c3F)n1
Outline: as §1

dasatinib = compound: Cc1nc(Nc2ncc(C(=O)Nc3c(C)cccc3Cl)s2)cc(N2CCN(CCO)CC2)n1 [dasatinib]
Outline: as §1

[8] = compound: Cn1cc(-c2ccc3c(c2)CCN3C(=O)Cc2cccc(C(F)(F)F)c2)c2c(N)ncnc21
Outline: as §1

[9] = compound: Cn1cc(-c2ccc3nnc(C(F)(F)c4ccc5ncccc5c4)n3n2)cn1
Outline: as §1

tipifarnib = compound: Cn1cncc1[C@@](N)(c1ccc(Cl)cc1)c1ccc2c(c1)c(-c1cccc(Cl)c1)cc(=O)n2C [tipifarnib]
Outline: as §1

mubritinib = compound: FC(F)(F)c1ccc(/C=C/c2nc(COc3ccc(CCCCn4ccnn4)cc3)co2)cc1 [mubritinib]
Outline: as §1

Measured: log2 fold change

MEF2C isoform 2 (UniProt Q06413)
inactive: [1] -0.004 | tozasertib 0.127

MEGF8 (UniProt Q7Z7M0)
inactive: crizotinib -0.242 | tozasertib -0.161 | doramapimod 0.374 | nilotinib -0.303 | [2] -0.167 | [3] -0.017

MED28 (UniProt Q9H204)
inactive: [4] 0.145 | [5] -0.12 | duvelisib 0.108 | gandotinib -0.026 | tozasertib 0.013 | [6] 0.011 | ispinesib 0.132 | bafetinib 0.148 | [7] 0.016 | nilotinib 0.064 | [2] 0.012 | dasatinib 0.01 | [3] -0.09 | [8] 0.049 | [9] 0.068 | tipifarnib 0 | mubritinib 0.027

METTL7B (UniProt Q6UX53)
inactive: [1] 0.022 | gandotinib -0.215 | [7] -0.067

MED31 (UniProt Q9Y3C7)
inactive: crizotinib -0.145 | doramapimod 0.124 | ispinesib -0.001 | nilotinib 0.041 | [2] 0.04 | [3] -0.161 | [9] 0.05 | mubritinib 0.014

METTL17 isoform 3 (UniProt Q9H7H0)
inactive: [4] 0 | [5] 0.139 | ispinesib -0.091 | [8] -0.232 | [9] 0.084 | tipifarnib -0.04 | mubritinib 0.153

MASP1 isoform 2 (UniProt P48740)
inactive: [4] -0.086 | [5] 0.652 | gandotinib -0.07 | [7] -0.009 | [8] 0.098

MED13L (UniProt Q71F56)
inactive: [1] 0.101 | [5] 0.138 | [8] 0.046 | tipifarnib 0.182

MED11 (UniProt Q9P086)
inactive: crizotinib -0.095 | tozasertib 0.009 | doramapimod 0.131 | mubritinib -0.346

MEGF10 (UniProt Q96KG7)
inactive: tozasertib -0.222 | tipifarnib 0.269

MBLAC1 (UniProt A4D2B0)
inactive: crizotinib 0.038 | [5] -0.007 | gandotinib -0.056 | [6] -0.017 | doramapimod 0.169 | ispinesib -0.142 | bafetinib -0.017 | [7] 0.065 | dasatinib -0.129 | [8] 0.086 | [9] -0.125 | tipifarnib 0.094 | mubritinib -0.045

MEX3C (UniProt Q5U5Q3)
inactive: ispinesib 0.029 | [9] -0.067 | mubritinib 0.278

MFAP3 (UniProt P55082)
inactive: [4] -0.012 | [1] 0.045 | [6] 0.003 | bafetinib -0.385 | dasatinib -0.083

MED21 (UniProt Q13503)
inactive: [5] -0.2 | gandotinib 0.086 | tozasertib 0.092 | ispinesib 0.325 | [7] -0.286 | nilotinib 0.11 | [2] 0.113 | [3] -0.274 | [8] 0.159 | [9] 0.216 | tipifarnib 0.155 | mubritinib -0.047

MEIS2 (UniProt O14770)
inactive: crizotinib -0.337 | [5] -0.095 | duvelisib -0.045 | gandotinib 0.091 | [6] 0.029 | doramapimod -0.043 | ispinesib 0.038 | bafetinib 0.007 | [7] -0.004 | dasatinib -0.229 | [8] 0.006 | [9] -0.059 | tipifarnib -0.094

MCOLN3 (UniProt Q8TDD5)
inactive: gandotinib 0.022 | ispinesib -0.255 | bafetinib -0.03 | [7] -0.183 | nilotinib -0.289 | [2] -0.113 | [3] 0.041 | [9] 0.079 | tipifarnib 0.072 | mubritinib 0.05

MED9 (UniProt Q9NWA0)
inactive: crizotinib -0.075 | duvelisib 0.061 | gandotinib 0.038 | [6] -0.155 | doramapimod 0.072 | ispinesib 0.228 | [7] -0.169 | nilotinib 0.043 | [2] 0.066 | dasatinib 0.001 | [3] -0.055 | [9] 0.229 | mubritinib -0.005

MATK isoform 2 (UniProt P42679)
inactive: [5] 0.154 | duvelisib 0.035 | [6] -0.08 | nilotinib 0.027 | [2] 0.007 | dasatinib 0.051 | [3] 0.022 | [8] -0.184

MEF2A (UniProt Q02078)
inactive: [4] 0.061 | [1] 0.136 | tozasertib -0.011 | nilotinib 0.158 | [2] 0.006 | [3] 0.031 | tipifarnib -0.061

2 entries drawn at random from those above, as already listed:
MEIS2 (UniProt O14770)
inactive: crizotinib -0.337 | [5] -0.095 | duvelisib -0.045 | gandotinib 0.091 | [6] 0.029 | doramapimod -0.043 | ispinesib 0.038 | bafetinib 0.007 | [7] -0.004 | dasatinib -0.229 | [8] 0.006 | [9] -0.059 | tipifarnib -0.094

MEF2A (UniProt Q02078)
inactive: [4] 0.061 | [1] 0.136 | tozasertib -0.011 | nilotinib 0.158 | [2] 0.006 | [3] 0.031 | tipifarnib -0.061

(cont.)

MGRN1 isoform 2 (UniProt O60291)
inactive: crizotinib -0.015 | [5] 0.225 | gandotinib 0.06 | doramapimod 0.012 | ispinesib -0.225 | bafetinib -0.07 | [7] -0.227 | [8] -0.149 | [9] 0.027 | tipifarnib 0.2

MFSD1 isoform 6 (UniProt Q9H3U5)
active: ispinesib -0.367
inactive: [4] 0.035 | [1] 0.076 | [5] -0.03 | gandotinib -0.077 | bafetinib -0.123 | [7] 0.066 | nilotinib -0.017 | [2] 0.046 | [3] -0.016 | [8] -0.034 | [9] 0.033 | tipifarnib 0.05 | mubritinib 0.005

METTL15 (UniProt A6NJ78)
inactive: [1] 0.556 | duvelisib 0.193 | tozasertib 0.135 | [6] 0.121 | bafetinib -0.165 | dasatinib -0.426

MFHAS1 (UniProt Q9Y4C4)
inactive: crizotinib 0.17 | [5] -0.034 | duvelisib 0 | gandotinib 0.05 | tozasertib -0.284 | [6] -0.143 | doramapimod 0.126 | ispinesib 0.161 | bafetinib 0.155 | [7] -0.09 | dasatinib 0.012 | [8] 0.191 | [9] 0.041 | mubritinib 0.074

MBIP (UniProt Q9NS73)
inactive: crizotinib 0.048 | tozasertib -0.044 | doramapimod 0.016 | ispinesib -0.096 | bafetinib -0.029 | [9] -0.019 | tipifarnib 0.101 | mubritinib 0.029

MFSD8 (UniProt Q8NHS3)
inactive: crizotinib -0.013 | [1] 0.04 | [5] -0.023 | gandotinib -0.018 | [6] -0.015 | doramapimod 0.131 | ispinesib -0.208 | bafetinib -0.006 | [7] -0.12 | dasatinib 0.061 | [8] -0.007 | [9] 0.017 | tipifarnib -0.042 | mubritinib -0.002

MEF2A isoform 2 (UniProt Q02078)
inactive: crizotinib 0.014 | [5] 0.024 | gandotinib 0.186 | doramapimod 0.019 | [7] 0.155 | nilotinib -0.056 | [2] 0.032 | [3] -0.152 | [8] 0.038 | tipifarnib 0.08 | mubritinib 0.114
